# Measured values reported in the supplement of paper PMC3334620.
# Over roughly 33,000 sequences, “E-score (-0.5 to 0.5)” has its median near -0.0034; the highest 2% begin near 0.25. Some of the results follow.
# Biological target: T1, Yap3 (UniProt P38749)
# T1 sequence: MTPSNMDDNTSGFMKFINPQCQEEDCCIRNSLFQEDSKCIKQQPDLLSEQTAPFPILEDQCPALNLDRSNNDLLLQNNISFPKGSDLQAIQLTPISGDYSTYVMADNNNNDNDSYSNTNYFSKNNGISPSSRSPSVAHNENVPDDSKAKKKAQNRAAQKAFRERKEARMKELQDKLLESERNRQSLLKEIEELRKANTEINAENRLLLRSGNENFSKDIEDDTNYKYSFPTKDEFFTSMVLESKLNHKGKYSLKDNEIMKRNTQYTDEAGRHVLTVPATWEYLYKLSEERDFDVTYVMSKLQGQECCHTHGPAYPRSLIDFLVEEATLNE
# Experiment: PBM E-score (8-mer binding enrichment) (E-score (-0.5 to 0.5)); higher = stronger / more preferred TF binding
# Details: protein concentration: 100 nM; construct: GST-full length
# Description: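 Universal 'all 10-mer' protein binding microarrays (Agilent AMADID 015681) probed with GST-tagged S. cerevisiae TFs (full-length or DBD) made by in vitro transcription/translation (PURExpress), about 100-200 nM. Bound TF was detected with fluorescent anti-GST. Each ungapped 8-mer (which stands for itself and its reverse complement) is scored by the PBM enrichment score (E-score), a modified Wilcoxon-Mann-Whitney statistic from -0.5 to +0.5, computed with the Universal PBM Analysis Suite. Scale: above 0.35 generally sequence-specific binding.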
row,Sequence,PBM E-score
1,ACTTCGGC,-0.0242
2,GTAGAGAA,0.0971
3,AGCTCCCA,-0.177
4,ATTACTGC,0.254
5,CACGGTCC,-0.314
6,CCACTTCA,-0.0512
7,ACCGTGCA,0.0374
8,AAAAACTC,0.072
9,CCAGAATA,0.246
10,AACATCTA,-0.0506
11,CCAACTAA,0.0685
12,CTTATACC,0.162
13,AGTCTAAA,0.0798
14,CCAGAAAC,0.0139
15,ACCAACTC,-0.0673
16,ACGCCAGT,-0.155
17,GTTTCGTA,0.0847
18,GGGGCCCC,-0.149
19,CTTCCGAC,-0.131
20,ATTATAAT,0.319
21,CTTGTGGC,-0.132
22,ACAATCAG,0.105
23,CACGGCAC,-0.095
24,GGGTCTTA,-0.141
25,GTACGTTA,0.256

row,Sequence,PBM E-score
1,ACCTCCGT,-0.0159
2,CACTTAAC,-0.00843
3,CAGTAGGC,-0.0809
4,AACCCAAG,0.0426
5,CGGGGCGA,-0.00531
6,AGTACGAT,0.155
7,ATCAACTC,0.0249
8,CTCGAGAC,0.124
9,GTTATATA,0.224
10,CCGCGCGA,0.0991
11,TGTACGAA,0.111
12,AAGTTGCA,0.0331
13,GAAGCAAA,0.0129
14,AAGCGGCA,0.0177
15,ATCCACAA,0.0715
16,GCAGGAGC,-0.214
17,CACGTCGC,-0.13
18,ATTCCTTC,0.161
19,GAGATATA,0.0765
20,CGTTGTGC,-0.0529
21,AAGGCGAC,-0.2
22,CTATCGGC,-0.0454
23,CAGCTGAC,-0.0663
24,CACACTCG,0.165
25,ACGGCAGT,-0.171

row,Sequence,PBM E-score
1,AAGCCTCG,-0.0424
2,GATCAGAC,-0.0877
3,ATTATTGC,0.228
4,CCGCCCGC,-0.162
5,CCTTGTAA,0.175
6,ACACTAAT,0.111
7,CGGCTGTC,-0.119
8,CCCCTGTA,-0.119
9,CAATCAAA,0.0584
10,AACAATCC,0.219
11,AGACTCTA,-0.078
12,CCCGGCTC,-0.389
13,CCTTCGAA,-0.0177
14,CGAGCGTC,-0.152
15,TAGATTAA,0.218
16,GGAAACAA,0.0492
17,ACGAATAC,0.192
18,AGTTGTGA,0.108
19,AATACGGC,0.0962
20,ACACCATG,-0.00611
21,CCAAACAA,0.11
22,AGAGGGAG,-0.102
23,AAAATCTT,-0.021
24,GCTCACTA,-0.0567
25,AATTACCT,0.0569

row,Sequence,PBM E-score
1,GGGCATTA,-0.117
2,CTTAGCTC,-0.115
3,CCTTCCAC,-0.0948
4,ACAGTGAG,0.0532
5,ACCGGCAC,-0.149
6,CTTAGACC,-0.0224
7,GGCCGTTA,0.00631
8,GGGGGGCA,-0.365
9,GTCGTTTA,-0.0446
10,AGATGATG,0.0822
11,ACCCCAGT,-0.023
12,CAGGAAGG,-0.253
13,CTTCCATA,-0.165
14,CAGGTAGA,0.00328
15,TCGGTAGA,0.115
16,CAGTCTAA,0.146
17,TGACCCCA,-0.14
18,ACGGGCTG,-0.17
19,AGTTAACG,0.126
20,GGCTAGCC,-0.413
21,TAAGCGTA,-0.0249
22,CGCGGTTC,0.126
23,AGGAGGCG,-0.107
24,GAGGCACA,-0.0567
25,GACGAACC,-0.115

row,Sequence,PBM E-score
1,ATGGTAGC,-0.0694
2,CCTCTTCC,-0.137
3,ACTTGTAC,-0.0218
4,AAGGTACC,0.00876
5,GTTACAAA,0.225
6,CCAGCGCA,-0.109
7,AGGGGCTC,-0.256
8,GCCCAGTA,-0.168
9,TACCCTCA,-0.127
10,ATCGCAAG,0.0705
11,CAGGGGCG,-0.0868
12,CGCTTATC,0.0171
13,ACAACCTC,-0.0214
14,ACCCGTAG,-0.319
15,TTCATGAA,0.123
16,GCGTGTGA,-0.0295
17,CTGTGTGA,0.102
18,CATTGCGG,-0.158
19,AACGACCT,-0.00487
20,CCAATTTA,0.258
21,AGAATGGA,0.0896
22,CTTCCCCA,-0.178
23,ATTGCCGA,-0.0174
24,CTATATAG,0.121
25,AGCCTGCA,-0.0221

row,Sequence,PBM E-score
1,CTAAAGTA,-0.0221
2,GGTGTACA,-0.0122
3,AACGCCTC,-0.387
4,CCAGTAAC,0.0196
5,CTATGATA,0.0744
6,CAGCTCTA,-0.0405
7,GCCCCGAA,-0.0165
8,TACTGAGA,-0.0171
9,ACTTCTTA,0.0706
10,AAAAATCG,-0.0533
11,AAGCTCCT,-0.259
12,AAACGGGA,0.12
13,AAGTTCCG,0.0723
14,GTGCAGGA,-0.0718
15,GGAGTAAC,-0.103
16,AGCGATCA,0.0611
17,CGCTACCG,0.0191
18,AGCATAGC,-0.0672
19,GGTCTCTA,-0.0325
20,CAGCGCGA,-0.0276
21,CATGGGGG,-0.265
22,TGCCGGCA,0.0991
23,AAAGCAGG,-0.00967
24,GGTTGGTA,0.183
25,GCATCCCA,-0.186

# Some values from the results shown:
# For PBM E-score, CTTCCGAC is listed with -0.131
# For PBM E-score, ATCCACAA is listed with 0.0715
# For PBM E-score, AGGAGGCG is listed with -0.107
# For PBM E-score, CGCTACCG is listed with 0.0191
# For PBM E-score, AGTTGTGA is listed with 0.108
# For PBM E-score, AGTCTAAA is listed with 0.0798
# For PBM E-score, CACGGTCC is listed with -0.314

# Next entries:

row,Sequence,PBM E-score
1,AGAGGTTA,0.0984
2,AGGCTATC,-0.203
3,AATTCGAT,0.171
4,GTACTCAA,0.0782
5,ACGTGGGA,-0.127
6,TGCCGAAA,-0.0682
7,CCGCTATA,0.0048
8,AATAGGAA,0.206
9,AATCACCG,0.11
10,AATTGGAA,0.133
11,CGGTGCGA,-0.0589
12,ATTGGAGA,0.125
13,CGATGCCC,-0.204
14,ACAACTCA,0.0676
15,CCAGACGG,-0.389
16,CAGTGTGC,-0.109
17,ATAAGATA,0.23
18,AACTCGAT,0.0914
19,CTCATTGA,-0.164
20,AAGACCAC,-0.28
21,AGGATGGC,-0.125
22,ACACTCCG,-0.109

# 3 entries drawn at random from the list so far:
row,Sequence,PBM E-score
8,AATAGGAA,0.206
20,AAGACCAC,-0.28
10,AATTGGAA,0.133
